Measured values from US9913801B2 (YOUR ENERGY SYSTEMS, LLC, priority 2013, dated 2018).
Some results were stated once for a whole list of compounds, not compound by compound.

System: Mycobacterium tuberculosis
Settings: general statement, concentration not given

Compound: CC(=O)N[C@@H](CS)C(=O)O [NAC, N-Acetyl Cysteine]
- growth of the organisms limited to a level: below 1000 CFU/ml
